According to PubChem BioAssay AID1347076 (National Center for Advancing Translational Sciences (NCATS), 2019):
“And” between values parts separate entries of the source, which are not always exact repeats. Identical values can stand only once. Screen size: about 400,000 compounds; about 13,000 (3.2%) were called active. The shares of active, inactive and inconclusive entries below differ from those in the screen. Calls come from the whole dose curve; as a rule, active = well fitted cell-killing curve with a large enough effect; inconclusive = small, poorly fitted or top-dose-only effect, or effect the other way; inactive = flat fitted curve, though single readings scatter. Potencies of inconclusive entries are doubtful fits and often do not repeat.

experiment: qHTS assay for MDR1-selective chemotherapeutics: Primary screen using the drug-selected MDR subline cells KB-V1; details: KB-V1 MDR cells viability, CellTiter-Glo, 72 h; series mostly up to 46.1 µM; note: nearly all actives have a fitted effect of over 60% in size
Procedure, shortened: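 Cells of the MDR subline KB-V1 are plated, dosed with compound at multiple concentrations, and incubated 72 h at 37 degrees C; CellTiter-Glo is then added and luminescence read after 10 min.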
Potency is the fitted concentration of half-maximal effect.

Which Potency does the source give for NC(=S)Nc1ncc(CCN2CCOCC2)c(-c2ccc(F)cc2)n1 here?
The Potency was inconclusive: 18.4 µM [cytotoxic, partial curve, poor fit].

With COc1ccc(NCc2n[nH]c(=O)c3ccccc23)cc1 as the compound, how does the Potency read?
The Potency was “inactive”.

Which Potency does the source give for CN(C)S(=O)(=O)N(CC(=O)Nc1ccc(Br)cc1F)c1ccccc1 here?
Its Potency is “inactive”.

With COC(=O)c1sc(NC(=O)C2c3ccccc3Oc3ccccc32)c(C(=O)OC)c1C as the compound, how does the Potency read?
Its Potency is active: 11.6 µM.

For O=S(=O)(c1ccccc1C(F)(F)F)N1CCN(c2nc(-c3ccccc3)nc3ccccc23)CC1, which Potency is on record?
The Potency was “inactive”.

Which Potency does the source give for CC1CCCN(C(=O)C2CC(=O)N(c3ccc(Cl)cc3)C2)C1 (stereo not given) here?
Its Potency is inconclusive: 23.1 µM [cytotoxic, single point].

Which Potency does the source give for Cc1cccc(/C=N/NC(=O)c2ccc(Br)cc2)c1 here?
Its Potency is inconclusive: 13 µM [cytotoxic, partial curve].

For Cc1nn2c(N3CCN(C)CC3)cc(C(C)(C)C)nc2c1-c1ccccc1, which Potency is on record?
The Potency was inconclusive: 29.1 µM [cytotoxic, single point].

For CCC(C)NS(=O)(=O)c1ccc(N2CCCCS2(=O)=O)cc1 (stereo not given), which Potency is on record?
Its Potency is “inactive”.

Which Potency does the source give for CCC(C)N(C(=O)CSc1nc(-c2cccs2)nc2ccccc12)C1CCS(=O)(=O)C1 (stereo not given) here?
Its Potency is active: 1.46 µM.

Which Potency does the source give for CCOC(=O)c1cc2sccc2n1CCCN1C(=O)c2ccccc2C1=O here?
The Potency was inconclusive: 16.4 µM [cytotoxic, partial curve].

For COc1cc(OC)cc(C(=O)NC(C(=O)N2CCc3ccccc3C2)C(C)C)c1 (stereo not given), which Potency is on record?
Its Potency is inconclusive: 7.31 µM [cytotoxic, partial curve].

Which Potency does the source give for CN(C(=O)CCCN1C(=O)c2ccccc2C1=O)C1CCCCC1 here?
Its Potency is active: 11.6 µM.

Which Potency does the source give for Cc1ccc(C(=O)C[n+]2ccc(Cc3ccccc3)cc2)cc1 here?
Its Potency is “inactive”.

Which Potency does the source give for O=C(CN1CCCCC1)Nc1ccc(NC(=O)c2ccc(Cl)cc2)cc1Cl here?
Its Potency is inconclusive: 11.6 µM [cytotoxic, partial curve].

With CC(C)[C@H](NC(=O)c1ccccc1)C(=O)OCc1nc2scc(-c3ccccc3)c2c(=O)[nH]1 as the compound, how does the Potency read?
Its Potency is inconclusive: 29.1 µM [cytotoxic, single point].

For O=C1c2ccccc2NC(c2ccc(O)cc2)N1Cc1ccco1 (stereo not given), which Potency is on record?
Its Potency is “inactive”.

With CCCCOc1ncnc2c1[nH]c1ccc(F)cc12 as the compound, how does the Potency read?
Its Potency is active: 6.51 µM.

For CC1(C)CC(NC(=O)c2ccc(Br)o2)CC(C)(C)N1, which Potency is on record?
Its Potency is inconclusive: 2.91 µM [rising, full curve].

Which Potency does the source give for Cc1ccc2[nH]c(=O)c(CN(Cc3cccs3)C(=S)NCc3ccco3)cc2c1 here?
The Potency was active: 18.4 µM.

With CCCn1c(=O)c2ccccc2n2c(Sc3nnnn3-c3ccccc3)nnc12 as the compound, how does the Potency read?
The Potency was “inactive”.

With NC(=O)c1ccsc1NC(=O)c1ccc(S(=O)(=O)N2CCCC2)cc1 as the compound, how does the Potency read?
The Potency was inconclusive: 32.6 µM [cytotoxic, partial curve, poor fit].

Which Potency does the source give for Nc1c(C=C2C=CC(=O)C=C2)c(=O)nc2sc(CC(=O)N3CCOCC3)nn12 here?
The Potency was inconclusive: 18.4 µM [rising, single point].

With CCCCC1S/C(=N/N=C/c2cccs2)NC1=O (stereo not given) as the compound, how does the Potency read?
Its Potency is inconclusive: 23.1 µM [cytotoxic, single point].

Which Potency does the source give for COc1ccccc1C(=O)NCCC(=O)Nc1cccc(C)n1 here?
The Potency was “inactive”.

For CC(C)CC1Nc2ncnc(N3CCN(c4ccccn4)CC3)c2N(Cc2ccc(Br)cc2)C1=O (stereo not given), which Potency is on record?
Its Potency is inconclusive: 29.1 µM [cytotoxic, single point] and inconclusive: 25.9 µM [cytotoxic, single point].

For CCCCCC(=O)N1C[C@@H](n2cc(-c3ccc(F)cc3)nn2)[C@H](O)C[C@@H]1c1ccc(C)cc1, which Potency is on record?
The Potency was inconclusive: 29.1 µM [cytotoxic, single point].

For Cc1onc(-c2ccccc2)c1CNS(=O)(=O)c1cccc(Br)c1, which Potency is on record?
Its Potency is inconclusive: 14.6 µM [cytotoxic, single point].

With CCCCNC(=O)CCCN1C(=O)CCn2nc(-c3cccn3C)cc21 as the compound, how does the Potency read?
Its Potency is “inactive”.

Which Potency does the source give for O=C1CCCC(O)=C1C(C#Cc1ccccc1)C1=C(O)CCCC1=O here?
Its Potency is inconclusive: 23.1 µM [cytotoxic, single point].

With O=S(=O)(c1ccc(Br)cc1)N1CCCC1c1nc2ccccc2s1 (stereo not given) as the compound, how does the Potency read?
The Potency was inconclusive: 20.6 µM [cytotoxic, single point].

For O=C(c1[nH]c(C(F)(F)F)nc1-c1ccccc1)N1CCN(C(=O)C2CCCO2)CC1 (stereo not given), which Potency is on record?
Its Potency is “inactive”.

For Cc1ccc(-n2cccc2C(=S)N=P(N(C)C)(N(C)C)N(C)C)cc1, which Potency is on record?
The Potency was active: 3.26 µM.

With N#CC1=CC2CN(Cc3ccccc3)C1C1C(=O)N(c3ccccc3)C(=O)C21 (stereo not given) as the compound, how does the Potency read?
Its Potency is “inactive”.

With Cc1ccc(S(=O)(=O)c2c(C)cc(C)nc2Cl)cc1 as the compound, how does the Potency read?
Its Potency is active: 13 µM.

With O=C(Cc1ccccc1)Nc1ccc(C(=O)NCC2COc3ccccc3O2)cc1 (stereo not given) as the compound, how does the Potency read?
The Potency was “inactive”.

Which Potency does the source give for CCOC(=O)C(=O)NCC(c1cccs1)S(=O)(=O)c1ccc(Cl)cc1 (stereo not given) here?
Its Potency is inconclusive: 29.1 µM [rising, single point].

For COc1ccc(-c2nc(CSc3nncn4c3cc3oc(C)cc34)c(C)o2)cc1, which Potency is on record?
Its Potency is “inactive”.

With O=C(CCCN1C(=O)c2cccc3cccc(c23)C1=O)NC1CCS(=O)(=O)C1 (stereo not given) as the compound, how does the Potency read?
The Potency was “inactive”.

Which Potency does the source give for COc1ccccc1N(C)c1cc2c(c3c1ccn3C)C1CCC2C1 (stereo not given) here?
The Potency was inconclusive: 29.1 µM [cytotoxic, single point].

Which Potency does the source give for CC[C@@]12C(=O)N(c3ccc(OC)cc3)C(=O)N1[C@H](c1cccc(C)c1)[C@@H]1C(=O)N(Cc3ccccc3)C(=O)[C@@H]12 here?
The Potency was inconclusive: 2.59 µM [rising, partial curve, poor fit].

For O=S1(=O)N=C(N(CCO)/N=C/C=C/c2ccccc2)c2ccccc21, which Potency is on record?
The Potency was inconclusive: 29.1 µM [cytotoxic, single point].

For Cc1ccc(Cl)cc1NC(=O)COC(=O)CC(C)(C)CC1=NS(=O)(=O)c2ccccc2N1, which Potency is on record?
The Potency was inconclusive: 18.4 µM [rising, partial curve, poor fit].

Which Potency does the source give for COc1ccc(CCNC(=O)C(=O)NCC2CCCN2S(=O)(=O)c2cccs2)cc1OC (stereo not given) here?
Its Potency is “inactive”.

Which Potency does the source give for CC(=O)c1ccccc1Oc1cc(NN2CCCCC2)c([N+](=O)[O-])cc1[N+](=O)[O-] here?
The Potency was inconclusive: 23.1 µM [cytotoxic, single point].
